The values below come from US11266170B2, “Sweetener and flavor compositions, methods of making and methods of use thereof” (EPC Natural Products Co., Ltd., priority 2018, dated 2022).

This data set can be described thus: HPLC/DAD/MS detection of MRI (Amadori) products (Examples 51, 53, 57, 58). It is filed as physicochemical. The conditions noted are these: LC/MS; MRI of amino acid + carbohydrate.
With `O=C(O)CC(NCC(O)=C(O)C(O)C(O)CO)C(=O)O` (stereo not drawn) [Asp/Glu], the “MRI (Amadori) products Detected in Experiments” value (shortened to “MRI (Amadori) products Detected”) is listed as “Yes”.

For the molecule `O=C(O)CC(NCC(O)=C(O)C(O)CO)C(=O)O` (stereo not drawn) [Asp/Xyl], the “MRI (Amadori) products Detected” value is “Yes”. The value for `CCC(C)C(NCC(O)=C(O)C(O)C(O)CO)C(=O)O` (stereo not drawn) [Ile/Glu] was “Yes”.

As for `CCC(C)C(NCC(O)=C(O)C(O)CO)C(=O)O` (stereo not drawn) [Ile/Xyl], the “MRI (Amadori) products Detected” value is on record as “Yes”.

As to `O=C(O)C(Cc1ccccc1)NCC(O)=C(O)C(O)C(O)CO` (stereo not drawn) [Phe/Glu], the “MRI (Amadori) products Detected” value is recorded as “Yes”.

Consider `O=C(O)C(Cc1ccccc1)NCC(O)=C(O)C(O)CO` (stereo not drawn) [Phe/Xyl], for which the “MRI (Amadori) products Detected” value is “Yes”.
